The values below come from publication PMC5675595.

Chains of the proteins cited; added tags and fusions are not shown.
UniProt Q92973: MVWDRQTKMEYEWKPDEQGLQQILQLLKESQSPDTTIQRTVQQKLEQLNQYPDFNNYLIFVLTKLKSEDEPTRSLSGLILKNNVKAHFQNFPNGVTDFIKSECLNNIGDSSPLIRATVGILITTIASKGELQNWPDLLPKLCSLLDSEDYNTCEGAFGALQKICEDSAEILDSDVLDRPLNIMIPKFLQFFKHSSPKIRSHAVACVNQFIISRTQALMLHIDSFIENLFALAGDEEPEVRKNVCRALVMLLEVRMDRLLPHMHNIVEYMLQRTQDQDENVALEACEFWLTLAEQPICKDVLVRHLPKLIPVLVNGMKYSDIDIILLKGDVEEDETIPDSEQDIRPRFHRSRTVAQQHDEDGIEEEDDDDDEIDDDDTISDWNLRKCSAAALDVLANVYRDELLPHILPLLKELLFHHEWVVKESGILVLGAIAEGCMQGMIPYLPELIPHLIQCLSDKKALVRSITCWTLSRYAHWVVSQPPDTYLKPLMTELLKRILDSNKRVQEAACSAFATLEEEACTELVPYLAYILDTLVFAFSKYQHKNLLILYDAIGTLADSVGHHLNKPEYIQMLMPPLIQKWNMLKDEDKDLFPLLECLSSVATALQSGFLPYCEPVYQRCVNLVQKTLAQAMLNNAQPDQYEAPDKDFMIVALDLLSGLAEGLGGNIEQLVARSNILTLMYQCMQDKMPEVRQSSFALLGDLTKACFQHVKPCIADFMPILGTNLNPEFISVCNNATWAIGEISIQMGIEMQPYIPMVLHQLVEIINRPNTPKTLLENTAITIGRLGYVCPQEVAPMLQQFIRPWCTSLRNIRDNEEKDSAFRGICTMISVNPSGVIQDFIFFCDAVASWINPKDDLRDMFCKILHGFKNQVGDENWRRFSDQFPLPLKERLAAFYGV

The assay has as its target T1, HA-tagged IRAK2 (UniProt Q8CFA1).
T1 sequence: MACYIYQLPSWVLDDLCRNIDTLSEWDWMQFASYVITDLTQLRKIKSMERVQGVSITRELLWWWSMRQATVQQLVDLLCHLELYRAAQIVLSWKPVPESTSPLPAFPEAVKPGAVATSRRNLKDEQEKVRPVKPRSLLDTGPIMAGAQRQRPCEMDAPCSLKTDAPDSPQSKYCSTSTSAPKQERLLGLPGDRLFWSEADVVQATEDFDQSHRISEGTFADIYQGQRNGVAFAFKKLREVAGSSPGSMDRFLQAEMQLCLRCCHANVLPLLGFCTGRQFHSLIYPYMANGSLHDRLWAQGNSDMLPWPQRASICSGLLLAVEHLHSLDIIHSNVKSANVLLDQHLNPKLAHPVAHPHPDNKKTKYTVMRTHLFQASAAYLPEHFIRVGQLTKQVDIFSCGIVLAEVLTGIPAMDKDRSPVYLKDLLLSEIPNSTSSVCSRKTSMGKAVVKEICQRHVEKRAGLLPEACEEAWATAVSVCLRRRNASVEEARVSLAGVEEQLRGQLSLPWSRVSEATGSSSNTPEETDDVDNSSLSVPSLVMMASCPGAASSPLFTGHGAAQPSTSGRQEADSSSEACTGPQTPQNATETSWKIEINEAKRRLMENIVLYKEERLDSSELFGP
The assay can be described thus: affinity purification with mass spectrometry; IL1R-293 cells transiently transfected with HA-tagged IRAK2 and treated by IL-1; anti-HA immunoprecipitation; mass spectrometry of the precipitate.

No constants are given. Whether binding was seen depends on the method and setting. In cells and extracts the contact can be indirect. A yes stands for co-enrichment or nearness to the bait. Other partners may have been found. Where a sequence is shown, tags or fusion partners need not be part of it.

For “Importin-β-2 (from UniProt Q92973 1-898)”, the binding entry is on record as “binds”.
